{"source": "patent US10676518B1", "about": "“A4B2 nicotinic acetylcholine receptors with reduced or increased nicotine sensitivity and transgenic mouse model for the same” (University of Puerto Rico, priority 2015, dated 2020)"}
{"test_system": "α4β2 nAChRs expressed in Xenopus laevis oocytes", "experiment": "125I-labeled epibatidine binding assay for membrane expression of nAChR in oocytes", "parameters": "species or system Rattus norvegicus", "conditions": "50 pM 125I-labeled epibatidine, 2 h"}
{"substance": "α4S438Aβ2: rat α4β2 nAChR, α4 subunit point mutation S438A, CKII putative phosphorylation site", "receptor expression compared with WT": "did not exhibit changes in expression"}
{"substance": "α4S469Aβ2: rat α4β2 nAChR, α4 subunit point mutation S469A, CKII putative phosphorylation site", "receptor expression compared with WT": "significant decreases in receptor expression"}
{"substance": "α4S438Dβ2: rat α4β2 nAChR, α4 subunit point mutation S438D, CKII putative phosphorylation site", "receptor expression compared with WT": "significant decreases in receptor expression"}
{"substance": "α4S469Dβ2: rat α4β2 nAChR, α4 subunit point mutation S469D, CKII putative phosphorylation site", "receptor expression compared with WT": "no change in receptor expression"}
